Reference: EP2889299A1, “Fluorescent red emitting functionalizable pH probes” (Paris Sciences et Lettres - Quartier Latin, priority 2013, dated 2015)

test: Metal screening for fluorescence quenching; conditions: probe 5 µM; cations 10^-3 M; MOPS 30 mM, KCl 100 mM, pH 7.2; Zn2+, Mg2+, Ca2+, Fe3+, Mn2+, Cu2+

| SMILES | fluorescence intensities in presence of metal ions compared to "naked" EDTA environment |
| --- | --- |
| [N-]=[N+]=NCCCNC(=O)c1cc(C2=c3cc4c5c(c3Oc3c2cc2c6c3CCCN6CCC2)CCC[N+]=5CCC4)ccc1O [Compound I-1] | Insignificant fluctuations |
| C#CCOC(=O)N1CCN(C(=O)c2cc(C3=c4cc5c6c(c4Oc4c3cc3c7c4CCCN7CCC3)CCC[N+]=6CCC5)ccc2O)CC1 [Compound I-3] | same results |
| C#CCN1CCN(C(=O)c2cc(C3=c4cc5c6c(c4Oc4c3cc3c7c4CCCN7CCC3)CCC[N+]=6CCC5)ccc2O)CC1 [Compound I-4] | same results |
